Assay results as given in PMC4741504.
Results are given in words; binding and its absence hold for the method and conditions named. Binding seen in cells or lysates may run through a third protein. Some binding calls cover weakened binding; strength is not graded here. For part of these data: Tags and fused reporters may be left off the sequences shown.

The chains behind the UniProt entries cited, without tags or fusion partners.
UniProt P59267: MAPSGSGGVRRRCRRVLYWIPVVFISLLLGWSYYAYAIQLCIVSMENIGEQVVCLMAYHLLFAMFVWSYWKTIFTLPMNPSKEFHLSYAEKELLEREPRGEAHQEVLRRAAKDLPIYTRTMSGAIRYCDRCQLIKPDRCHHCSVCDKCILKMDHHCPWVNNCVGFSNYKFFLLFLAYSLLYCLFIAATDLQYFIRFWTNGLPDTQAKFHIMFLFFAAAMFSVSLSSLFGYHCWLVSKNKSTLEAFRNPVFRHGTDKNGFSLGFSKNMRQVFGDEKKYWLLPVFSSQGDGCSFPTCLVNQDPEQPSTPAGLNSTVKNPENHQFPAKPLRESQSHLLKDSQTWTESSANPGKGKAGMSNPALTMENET

Key:
Assay in all cases: co-IP; HEK 293 cells co-transfected with EGFR-flag and HA-tagged PATs; PATs immunoprecipitated with HA antibody (protein A/G beads, overnight 4°C, RIPA washes), Western blot with HA and EGFR antibodies
[1] = molecular target: T1, HA-tagged mouse palmitoyl acyltransferase 21 (PAT 21) (mouse) (UniProt Q9D270)
T1 sequence: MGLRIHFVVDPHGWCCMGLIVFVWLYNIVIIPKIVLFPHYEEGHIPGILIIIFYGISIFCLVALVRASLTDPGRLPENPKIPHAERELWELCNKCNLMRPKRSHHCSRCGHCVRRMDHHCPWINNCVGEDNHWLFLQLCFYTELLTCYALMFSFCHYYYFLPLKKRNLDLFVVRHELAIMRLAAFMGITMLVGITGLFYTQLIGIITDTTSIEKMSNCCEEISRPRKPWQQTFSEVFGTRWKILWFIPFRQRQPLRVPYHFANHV

[2] = molecular target: HA-tagged mouse palmitoyl acyltransferase 2 (PAT 2) (mouse) (UniProt P59267)
[3] = molecular target: T2, HA-tagged mouse palmitoyl acyltransferase 1 (PAT 1) (mouse) (UniProt Q8R0N9)
T2 sequence: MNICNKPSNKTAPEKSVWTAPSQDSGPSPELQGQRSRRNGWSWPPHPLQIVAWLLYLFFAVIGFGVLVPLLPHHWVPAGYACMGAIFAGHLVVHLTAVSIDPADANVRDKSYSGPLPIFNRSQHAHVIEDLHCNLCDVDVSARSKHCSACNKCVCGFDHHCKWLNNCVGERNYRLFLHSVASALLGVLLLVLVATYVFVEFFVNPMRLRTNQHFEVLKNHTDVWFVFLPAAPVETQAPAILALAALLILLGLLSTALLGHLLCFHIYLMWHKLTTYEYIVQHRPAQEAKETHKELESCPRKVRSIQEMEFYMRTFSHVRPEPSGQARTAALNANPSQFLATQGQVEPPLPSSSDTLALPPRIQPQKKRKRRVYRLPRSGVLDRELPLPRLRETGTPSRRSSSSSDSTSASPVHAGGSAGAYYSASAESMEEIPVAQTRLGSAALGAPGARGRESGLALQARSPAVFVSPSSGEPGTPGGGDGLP

Measured: binding

Flag-tagged wild type full length EGFR (from UniProt P00533 25-1210) (receptor)
binds: [1] | [2] | [3]
